Measured values taken from publication PMC4569737, “Involvement of a eukaryotic-like ubiquitin-related modifier in the proteasome pathway of the archaeon Sulfolobus acidocaldarius” (Nature Communications, 2015).
No constants are given. Whether binding was seen depends on the method and setting. Some binding calls cover weakened binding; strength is not graded here. Tags and fused reporters may be left off the sequences shown.

T1: Saci0662ΔN, N-terminally truncated Saci0662 β-subunit (without the pro-peptide), His-tagged (S. acidocaldarius) (UniProt Q4JAY3)
T1 sequence: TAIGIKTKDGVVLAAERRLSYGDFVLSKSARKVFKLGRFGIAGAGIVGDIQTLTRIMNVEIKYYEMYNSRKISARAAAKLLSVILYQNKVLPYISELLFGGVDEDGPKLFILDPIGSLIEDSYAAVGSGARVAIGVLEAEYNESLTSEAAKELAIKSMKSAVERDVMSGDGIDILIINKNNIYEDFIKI


Experiments:
[1] = biological target: T1, Saci0662ΔN, N-terminally truncated Saci0662 β-subunit (without the pro-peptide), His-tagged (S. acidocaldarius); assay: co-purification on Ni-NTA IMAC after co-expression; untagged Saci0613 α co-expressed in E. coli with both Saci0662ΔN (His-tagged) and Saci0909ΔN; Ni-NTA agarose IMAC (Fig. 4a lane 5)
[2] = biological target: T1, Saci0662ΔN, N-terminally truncated Saci0662 β-subunit (without the pro-peptide), His-tagged (S. acidocaldarius); assay: negative-stain transmission electron microscopy; purified 20S complexes at 0.035 mg/ml on carbon-coated grids, 2% uranyl acetate; both purified
[3] = biological target: T1, Saci0662ΔN, N-terminally truncated Saci0662 β-subunit (without the pro-peptide), His-tagged (S. acidocaldarius); assay: SEC; size exclusion chromatography of the IMAC-purified proteasome complexes; both purified
[4] = biological target: T1, Saci0662ΔN, N-terminally truncated Saci0662 β-subunit (without the pro-peptide), His-tagged (S. acidocaldarius); assay: SEC-MALS; 100 μl protein complex at 2 mg/ml, Superdex 200 10/300 Increase GL, 20 mM Tris (pH 8.0), 300 mM NaCl, 25 °C; both purified

Row | binding [1] | binding [2] | binding [3] | binding [4] | Binder
1 | binds | binds | binds | binds | Saci0613 20S proteasome α-subunit, untagged (natural protein, S. acidocaldarius, UniProt Q4JB24 1-242, looked up, 20S proteasome α-subunit, S. acidocaldarius DSM639, Saci0613; also called Saci0613 α; 0613 α-subunit; source: E. coli Rosetta (DE3) pLysS, co-expressed with β-subunit(s); in heat-clarified lysate, and purified as part of the complex (Ni-NTA IMAC, size exclusion chromatography)) MALGPAAMGYDRAITIFSPDGSLYQVDYAFEAVKRGWTTLGVKTKSGVVLLAEKRKATQLLDVDGIEKIFMLDDHVGCTFAGLASDGRILIDYARSQALQHRLIYDEPISIEYLTKVISDVKQAYTQHGGVRPFGVALIVGGIDKGKQPKLLMTEPSGQFMPYYAVAIGQGGYTATEYLEKNYKEDLDIQSTILLALRALMATLKPGEKLNYSSVEIGYADVDSGTFKKLTTEERSDLLQKI
2 | binds | binds | binds | binds | Saci0909ΔN, N-terminally truncated Saci0909 catalytic β-subunit (without the pro-peptide) (domain or fragment, UniProt Q4JAA8 11-203) TTTVGIKVKDGVVLAADRRASAGYYVAHKYVRKVLYVTDNIGITTAGSVADLQFIYEALKYIYHRNSITGEGPITVKGIATWLANVLSSSKYFPYLVQILIGGVDDQPRLYNLDYLGDITEEEYTATGSGSPEALGVLEDNYKPEMSLDEAAELAKRAIFSSIKRDSFTGTGVIVTKITKNGHEEKEYYITKR
